From PubChem BioAssay AID2685 (National Center for Advancing Translational Sciences (NCATS), 2010) come the findings set out here.

Structures are written as SMILES. This is one part of the list. These are further read-outs of the screen, such as a control signal, another cell line or another target. No call is given for them. The list favours compounds with an active or inconclusive main result. Potencies come from curve fits of mixed quality, noted in brackets.

The assay in a line: qHTS Assay for Lipid Storage Modulators in Drosophila S3 Cells.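 For cell number change: cells counted by Cell Tracker Red CMTPX staining in the red channel.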 The following applies: BODIPY lipid droplet fluorescence, 18-24 h; for cell number change: measured here: cell count max response, cells fed with added oleic acid. In short, it runs like this:
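Drosophila S3 cells loaded with oleic acid (400 uM, as added) and compounds at several concentrations; lipid droplets imaged by 488-nm laser-scanning cytometry, 500–530 nm intensity and object ratio to cell channel. Percent activity normalized to 20 uM Triacsin C.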
A general note: In qHTS, concentration-response curves come from the screen itself.

Setting [1] is: measured here: cell number channel AC50, cells fed with added oleic acid.
Where [2] appears, read: measured here: lipid fluorescence (Fed channel) AC50, cells fed with added oleic acid.

Broadly, the AC50 is the concentration at which the activity in the assay is half-maximal. A high value points to weaker potency. Take `Cc1ccc2cc(NC(=O)c3ccccc3)ccc2n1`: the cell number change was determined as 20.7%. For the same compound, the AC50 under setting [1] was 0.259 µM [rising, full curve, poor fit]. Under setting [2], the AC50 was 0.0146 µM [rising, full curve, poor fit].
For the compound `CCn1nc2cc(C(=O)NCc3cc(C(F)(F)F)cc(C(F)(F)F)c3)ccc2c1OC`, the cell number change is 2.28%.
As to `O=c1c2cnn(-c3ccccc3)c2ncn1Cc1ccco1`, the AC50 under setting [2] was 0.58 µM [falling, single point].
Regarding `N#CC1=C(N)N2C(=C(C#N)C13CCN(Cc1ccccc1)CC3)Nc1ccccc12`, the cell number change is 121%. Further, the AC50 under setting [1] is 23.1 µM [rising, single point]. Also, under setting [2], the AC50 is 2.06 µM [rising, partial curve].
As to `Cc1cc(C(=O)N2CCCC(N3CCN(c4cccc(C(F)(F)F)c4)CC3)C2)no1` (stereo not drawn), the cell number change was 30.3%. In addition, the AC50 under setting [1] was 14.6 µM [rising, partial curve, poor fit]. Further, the AC50 under setting [2] was 29.1 µM [rising, single point].
Regarding `C/C(=N\NC(=O)c1c[nH]c2ccccc12)c1ccc2c(c1)OCO2`, the cell number change is 24.7%. For the same compound, the AC50 under setting [1] is 4.11 µM [rising, single point]. Further, the AC50 under setting [2] was 4.11 µM [rising, partial curve, poor fit].
With `O=C(c1ccc(=O)[nH]c1)N1CCN(S(=O)(=O)c2cc(C(F)(F)F)ccc2Cl)CC1`, the cell number change is -6.58%.
Regarding `CN(C)C(CNS(=O)(=O)c1ccc(F)cc1)c1cccnc1` (stereo not drawn), the cell number change was -0.271%. In addition, under setting [2], the AC50 was 13 µM [rising, partial curve].
`c1ccc2[nH]c(CSc3nnc(-c4ccncc4)o3)nc2c1`: the cell number change was -3.05%. Moreover, the AC50 under setting [2] is 0.00651 µM [rising, full curve, poor fit].
As for `Nc1ccc(-c2c3ccc(=O)cc-3oc3cc(O)ccc23)cc1C(=O)O`, the cell number change was -94.4%. Further, the AC50 under setting [1] was 9.2 µM [falling, partial curve]. Besides, the AC50 under setting [2] is 2.31 µM [falling, full curve].
On to `CCN(CC)c1ccc(C(=O)OCC(=O)NC2CCCCC2C)cc1` (stereo not drawn), for which the cell number change is -0.424%.
Consider `CN1CCN(c2oc(-c3cccs3)nc2S(=O)(=O)c2ccccc2)CC1`, for which the cell number change was determined as 37.6%. The AC50 under setting [1] was 0.00517 µM [rising, full curve, poor fit].
As to `CC1(c2ccc(OC(F)F)cc2)NC(=O)N(CC(=O)NCCC2=CCCCC2)C1=O` (stereo not drawn), the cell number change came out at 5.94%. Further, the AC50 under setting [2] was 0.411 µM [falling, full curve, poor fit].
Regarding `NCc1nc(-c2ccc(Cl)cc2)no1`, the cell number change was -19.1%. Besides, the AC50 under setting [2] is 29.1 µM [falling, single point].
`COc1ccc(C)cc1NC(=O)CCN1CCN(C/C=C/c2ccccc2)CC1`: the cell number change was determined as 0.293%. In addition, the AC50 under setting [2] was 2.06 µM [falling, partial curve].
With `CS(=O)(=O)c1ccc(C(=O)OC2CCOC2=O)cc1[N+](=O)[O-]` (stereo not drawn), the cell number change was -6.41%. Also, the AC50 under setting [2] was 4.11 µM [rising, partial curve, poor fit].
With `CCCN1CCN(S(=O)(=O)c2cc3c(cc2C)NC(=O)CO3)CC1`, the cell number change was determined as 18.7%. Besides, the AC50 under setting [2] is 29.1 µM [rising, single point].
Consider `CCC1Oc2ccccc2N(CC(=O)NCCCN2CCN(Cc3ccccc3)CC2)C1=O` (stereo not drawn), for which the cell number change came to 2.36%. In addition, the AC50 under setting [2] is 18.4 µM [rising, partial curve, poor fit].
On to `O=C(NCCC1CCCCN1S(=O)(=O)c1cccs1)C(=O)Nc1cccc(F)c1` (stereo not drawn), for which the cell number change is -105%. For the same compound, the AC50 under setting [1] is 18.4 µM [falling, partial curve].
`Cc1cccc(-n2nc3c(c2NC(=O)c2cc4ccccc4o2)CS(=O)(=O)C3)c1`: the cell number change was -14.1%. The AC50 under setting [2] is 18.4 µM [falling, single point].
`COc1cccc(NC(=O)C2CCCC2)c1`: the cell number change is -21.6%. Besides, the AC50 under setting [2] was 25.9 µM [rising, single point].
With `Cc1c(C)n(Cc2ccc(F)cc2)c2ccc(C(=O)N3CCN(c4ccccn4)CC3)cc12`, the cell number change was -5.77%.
Regarding `COc1ccc(CN2C(=O)CCC2(C)C(=O)NCc2cccnc2)c(OC)c1` (stereo not drawn), the cell number change was 17.5%. Moreover, under setting [2], the AC50 is 2.31 µM [rising, partial curve].
Turning to `COc1ccccc1C/C(N)=N/OC(=O)c1cccc([N+](=O)[O-])c1C`, the cell number change amounted to 32.1%. Also, the AC50 under setting [1] was 7.31 µM [rising, partial curve]. Under setting [2], the AC50 was 10.3 µM [rising, partial curve].
Regarding `COc1ccc(OC)c(/C=N/NC(=O)c2ccc[n+](CC(=O)c3ccccc3)c2)c1`, the cell number change amounted to 17.5%. Under setting [2], the AC50 was 14.6 µM [rising, single point].
With `COc1ccccc1-c1n[nH]c(=S)n1Cc1ccco1`, the cell number change is -3.01%. Moreover, under setting [1], the AC50 was 6.51 µM [rising, partial curve, poor fit].
In the case of `CNc1nc(Cl)c(SC)c(NC2CCCCC2)n1`, the cell number change was -4.56%.
For `NS(=O)(=O)c1ccc(NC(=O)c2cc(-c3cc(Cl)ccc3O)n[nH]2)cc1`, the cell number change amounted to 370%. Also, the AC50 under setting [1] was 4.11 µM [falling, single point].
On to `O=C(CCCSc1ccc(Cl)cc1)Nc1ccccc1O`, for which the cell number change worked out at 42.5%. For the same compound, the AC50 under setting [1] was 29.1 µM [rising, single point]. Moreover, the AC50 under setting [2] was 0.58 µM [rising, single point].
Take `Cc1ccccc1NC(=O)C(C)O/N=C/c1cccc([N+](=O)[O-])c1` (stereo not drawn): the AC50 under setting [1] is 0.92 µM [rising, partial curve] and the AC50 under setting [2] was 3.26 µM [rising, partial curve].
On to `CCCCN1C(=O)c2ccc(C(=O)NC3=NCCS3)cc2C1=O`, for which the cell number change was -23.8%. Under setting [2], the AC50 was 1.16 µM [rising, full curve].
Turning to `COc1ccc(C(=O)COC(=O)/C=C/c2ccco2)cc1F`, the cell number change was -47.6%. Besides, the AC50 under setting [1] was 0.92 µM [falling, full curve, poor fit]. For the same compound, the AC50 under setting [2] was 0.92 µM [falling, full curve, poor fit].
In the case of `COc1ccc(NC(=O)NCCCN2CCC(Cc3ccccc3)CC2)cc1`, the AC50 under setting [1] is 6.51 µM [rising, single point].
Consider `CC(C)(C)c1ccc(C(=O)N2CCC(=O)N(C(CO)Cc3ccccc3)CC2)cc1` (stereo not drawn), for which the cell number change was -4.68%. Moreover, the AC50 under setting [2] is 14.6 µM [falling, single point].
With `NS(=O)(=O)c1cccc(NC(=O)COC(=O)CN2C(=O)C3CC=CCC3C2=O)c1` (stereo not drawn), the cell number change turned out to be 3.97%.
On the same count and under the same terms, for `CC(CNC(=O)c1ccc(NC2=NC3CS(=O)(=O)CC3S2)cc1)c1ccccc1` (stereo not drawn) the value was -2.02%.
Take `Cc1ccc(/C=C2\C(=O)NC(=O)N2C)o1`: under setting [1], the AC50 was 0.731 µM [falling, full curve, poor fit].
Regarding `CC(C)(C)NC(=O)NC(=O)CN1CCN(S(=O)(=O)/C=C/c2ccccc2)CC1`, the cell number change stood at 3.36%.
